Results are given in words; binding and its absence hold for the method and conditions named. In cells and extracts the contact can be indirect. Here binding means that the protein was enriched with, or labelled near, the bait; the list need not be complete. Tags and fused reporters may be left off the sequences shown.
Molecular target: T1, RIMKLA containing 6×His-tag, overexpressed from adenovirus (Ad-RIMKLA) (UniProt Q6PFX8)
T1 sequence: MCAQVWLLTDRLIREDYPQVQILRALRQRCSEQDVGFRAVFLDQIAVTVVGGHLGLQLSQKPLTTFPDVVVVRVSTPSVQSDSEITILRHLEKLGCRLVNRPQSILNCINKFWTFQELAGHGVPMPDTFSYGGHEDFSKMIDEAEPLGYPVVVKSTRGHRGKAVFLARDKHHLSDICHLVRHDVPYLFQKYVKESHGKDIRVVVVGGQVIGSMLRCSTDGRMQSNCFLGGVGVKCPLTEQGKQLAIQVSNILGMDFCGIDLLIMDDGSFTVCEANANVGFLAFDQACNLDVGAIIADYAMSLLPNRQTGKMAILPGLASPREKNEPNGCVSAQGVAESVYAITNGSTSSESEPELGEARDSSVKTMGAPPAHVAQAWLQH
Experiment: affinity purification with mass spectrometry; mouse hepatocytes infected with Ad-RIMKLA (6×His) for 24 h; lysate precipitated with IgG or anti-His antibodies; PAGE, silver staining, indicated bands analysed by MS

- binding: binds
B1: betaine-homocysteine S-methyltransferase 1 (BHMT1), endogenous (enzyme, UniProt O35490 1-407)
chain: MAPVAGKKAKKGILERLNAGEVVIGDGGFVFALEKRGYVKAGPWTPEAAVEHPEAVRQLHREFLRAGSNVMQTFTFYASEDKLENRGNYVAEKISGQKVNEAACDIARQVADEGDALVAGGVSQTPSYLSCKSEVEVKKIFRQQLEVFMKKNVDFLIAEYFEHVEEAVWAVEALKASGKPVAATMCIGPEGDLHGVPPGECAVRLVKAGASIVGVNCHFDPSVSLQTVKLMKEGLEAARLKAYLMSQPLAYHTPDCGKQGFIDLPEFPFGLEPRVATRWDIQKYAREAYNLGVRYIGGCCGFEPYHIRAIAEELAPERGFLPPASEKHGSWGSGLDMHTKPWIRARARKEYWQNLRIASGRPYNPSMSRPDAWGVTKGAAELMQQKEATTEQQLRELFEKQKFKSAQ
